In PMC6359024 one finds binding data, which are given here for one substance.

This test addresses Native calreticulin in the serum of bronchiectasis patients (human (endogenous in patient serum)) (UniProt P27797). The experiment in a line: native gel or EMSA; sera of two bronchiectasis patients, reduced or alkylated, native PAGE (TGX precast gels), immunoblot with anti-CRT and anti-LPS. (In general: A gel shift assay detects complexes by their altered migration in electrophoresis.)

These are yes or no findings as the source states them, for the method shown. Some results given as binding are weak or reduced against the parent protein; the word gives no strength.

For “Native calreticulin in the serum of bronchiectasis patients (from UniProt P27797 18-417)”, the binding entry was “binds”.
